# Laboratory results reported in PMC7862700.
# The list shows a part of the results, in another mix than the full data. For part of these data: At the low end of the ranking the order means little. This is one part of the list. For part of these data: The source does not settle which construct or isoform was used.
# Experiments:
# Assay in all cases: DAPPL (digital affinity profiling via proximity ligation, sequencing)
# Conditions in all cases: 10 mM Tris-HCl pH 7.5, 50 mM NaCl, 1 mM DTT, 4% glycerol, room temperature, 30 min; GST-TFs on glutathione beads, 16-mer random dsDNA library, 0.1% …; high values mean tight binding; double strand, one strand shown; scale: fold enrichment (6-mer frequency, TF over GST control)
# [1] = molecular target: T1, GABPA (UniProt Q06546)
# T1 sequence: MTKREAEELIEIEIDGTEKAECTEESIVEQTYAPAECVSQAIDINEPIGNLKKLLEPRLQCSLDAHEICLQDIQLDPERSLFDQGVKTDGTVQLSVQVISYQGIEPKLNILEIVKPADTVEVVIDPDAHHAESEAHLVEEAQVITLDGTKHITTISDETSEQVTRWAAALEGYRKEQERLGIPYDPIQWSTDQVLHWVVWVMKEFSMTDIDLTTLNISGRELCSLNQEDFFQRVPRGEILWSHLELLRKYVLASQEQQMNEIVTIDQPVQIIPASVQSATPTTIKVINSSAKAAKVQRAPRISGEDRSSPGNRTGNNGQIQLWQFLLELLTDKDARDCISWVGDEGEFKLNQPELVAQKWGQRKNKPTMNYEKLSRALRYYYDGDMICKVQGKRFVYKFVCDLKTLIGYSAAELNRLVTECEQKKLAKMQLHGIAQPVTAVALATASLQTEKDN
# [2] = molecular target: T2, ETS1 (UniProt P14921)
# T2 sequence: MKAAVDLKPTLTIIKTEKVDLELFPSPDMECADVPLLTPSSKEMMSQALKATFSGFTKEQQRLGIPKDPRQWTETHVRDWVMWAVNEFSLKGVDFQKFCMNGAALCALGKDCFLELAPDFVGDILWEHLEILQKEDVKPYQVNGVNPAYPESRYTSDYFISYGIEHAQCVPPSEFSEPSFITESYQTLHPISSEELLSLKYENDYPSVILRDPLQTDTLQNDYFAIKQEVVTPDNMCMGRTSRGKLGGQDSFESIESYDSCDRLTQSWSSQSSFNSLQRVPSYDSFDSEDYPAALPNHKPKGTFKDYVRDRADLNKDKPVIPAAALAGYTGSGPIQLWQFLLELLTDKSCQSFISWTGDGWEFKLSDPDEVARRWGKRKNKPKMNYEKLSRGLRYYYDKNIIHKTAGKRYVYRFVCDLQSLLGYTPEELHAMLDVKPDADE
# [3] = molecular target: T3, SPDEF (UniProt O95238)
# T3 sequence: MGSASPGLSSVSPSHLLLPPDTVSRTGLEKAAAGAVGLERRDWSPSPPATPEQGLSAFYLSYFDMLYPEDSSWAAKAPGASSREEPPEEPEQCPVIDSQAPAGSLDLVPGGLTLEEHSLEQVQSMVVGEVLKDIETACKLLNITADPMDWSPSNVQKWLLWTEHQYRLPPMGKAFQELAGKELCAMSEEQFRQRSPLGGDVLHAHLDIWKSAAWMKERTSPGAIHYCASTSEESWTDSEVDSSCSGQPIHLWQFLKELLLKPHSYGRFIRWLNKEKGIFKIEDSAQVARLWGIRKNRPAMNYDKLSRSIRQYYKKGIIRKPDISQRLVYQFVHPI
Sequence,binding signal [1],binding signal [2],binding signal [3]
CGGTAC,0.939,0.988,
GATCCG,0.995,0.899,
GGGTCC,0.772,0.806,
GGTACC,0.798,0.896,0.883
CGTGCA,0.738,0.724,0.677
GGATGA,0.998,1.06,
GGGTCG,0.674,0.544,0.597
GCATAT,0.975,0.998,
GACACG,0.728,0.644,0.675
GGGGGG,0.576,0.597,0.523
ATCGGC,0.649,0.606,0.58
AGATAG,0.899,0.796,0.807
TGTAGT,0.961,0.925,
AGGCAG,0.615,0.553,0.521
CGGAAT,0.833,0.925,
GGACGG,0.48,0.534,0.547
GTGATA,0.729,0.674,0.712
GCAGTA,0.884,0.957,0.839
GTCATG,0.891,0.854,0.817
GACGCG,0.607,0.685,0.637
GTCCAG,0.638,0.603,0.637
GGGAGC,0.377,0.396,0.373

# 5 neighbouring records from above, quoted:
Sequence,binding signal [1],binding signal [2],binding signal [3]
TGTAGT,0.961,0.925,
AGGCAG,0.615,0.553,0.521
CGGAAT,0.833,0.925,
GGACGG,0.48,0.534,0.547
GTGATA,0.729,0.674,0.712

# Next part.

Sequence,binding signal [1],binding signal [2],binding signal [3]
AGCGGT,0.648,0.639,0.728
GGTCAG,0.569,0.525,0.532
AGTGGG,0.581,0.583,0.586
CGGGTG,0.608,0.647,0.762
AGGAGA,0.211,0.208,0.197
GCCGGC,0.816,0.76,0.786
GCGGAC,0.619,0.656,0.741
AGTAGA,0.801,0.727,0.767
AGGCGG,0.249,0.256,0.263
CGTCGG,0.436,0.428,0.384
AGAGCA,0.727,0.701,0.688
GGTCGG,0.268,0.264,0.252
GGTCCG,0.832,0.741,0.996
CGGGTT,0.833,0.928,
GCGCAG,0.876,0.843,0.769
CGCGGA,0.903,0.931,
CGGGAT,0.605,0.64,0.877
GACGAA,0.88,0.857,0.864
CGGCGG,0.592,0.573,0.5
CGAGCC,0.834,0.735,0.791
AGGAGG,0.214,0.195,0.216
GCCAGC,0.753,0.676,0.73

Sequence,binding signal [1],binding signal [2],binding signal [3]
GGGGAA,0.728,0.732,0.63
AGGCTG,0.698,0.672,0.658
AGCGCA,0.954,0.909,0.866
CACAGT,0.786,0.719,0.701
CGTGAT,0.486,0.475,0.528
ACGTGA,0.261,0.25,0.286
AGGGCC,0.979,0.902,0.916
TCGTAG,0.823,0.828,0.79
GTTGGA,0.472,0.472,0.457
GAGGCC,0.486,0.429,0.398
CCAAGG,0.907,0.935,0.889
GTTAGT,0.817,0.826,0.874
AGCCTG,0.893,0.92,0.813
GCATAA,0.777,0.81,0.82
CACGGT,0.922,0.941,0.957
AGGCAA,0.74,0.676,0.655
GACGCC,0.858,0.815,0.868
CGGCAG,0.811,0.828,0.794
ACCAGC,0.817,0.889,0.81
GACGGC,0.773,0.749,0.822
TAGTGA,0.567,0.56,0.573
GTCGGC,0.359,0.393,0.407

Sequence,binding signal [1],binding signal [2],binding signal [3]
TGTAGG,0.754,0.823,0.841
GGCCGA,0.733,0.761,0.661
ACAGAG,0.76,0.643,0.746
AGGCCG,0.442,0.475,0.45
GTCGGT,0.268,0.261,0.279
CAAGGG,0.899,0.882,0.861
GTTAGA,0.751,0.734,0.771
GACGGA,0.482,0.501,0.539
GCCAGT,0.328,0.316,0.308
GCGGGT,0.585,0.643,0.599
CAGCGT,0.849,0.839,0.838
GAGCCC,0.811,0.748,0.632
CCCGTG,0.554,0.584,0.529
AGAGCC,0.751,0.723,0.672
GACAGG,0.543,0.541,0.576
GATAGG,0.812,0.802,0.799
CCGAGT,0.897,0.927,0.91
GGGTTA,0.819,0.855,0.891
TGAGCG,0.618,0.639,0.649
GGTAGT,0.735,0.76,0.638
